Among the data in PMC3967990 are binding values, retold here.

Amino acid sequences for entries named in this document (tags omitted).
UniProt P08238: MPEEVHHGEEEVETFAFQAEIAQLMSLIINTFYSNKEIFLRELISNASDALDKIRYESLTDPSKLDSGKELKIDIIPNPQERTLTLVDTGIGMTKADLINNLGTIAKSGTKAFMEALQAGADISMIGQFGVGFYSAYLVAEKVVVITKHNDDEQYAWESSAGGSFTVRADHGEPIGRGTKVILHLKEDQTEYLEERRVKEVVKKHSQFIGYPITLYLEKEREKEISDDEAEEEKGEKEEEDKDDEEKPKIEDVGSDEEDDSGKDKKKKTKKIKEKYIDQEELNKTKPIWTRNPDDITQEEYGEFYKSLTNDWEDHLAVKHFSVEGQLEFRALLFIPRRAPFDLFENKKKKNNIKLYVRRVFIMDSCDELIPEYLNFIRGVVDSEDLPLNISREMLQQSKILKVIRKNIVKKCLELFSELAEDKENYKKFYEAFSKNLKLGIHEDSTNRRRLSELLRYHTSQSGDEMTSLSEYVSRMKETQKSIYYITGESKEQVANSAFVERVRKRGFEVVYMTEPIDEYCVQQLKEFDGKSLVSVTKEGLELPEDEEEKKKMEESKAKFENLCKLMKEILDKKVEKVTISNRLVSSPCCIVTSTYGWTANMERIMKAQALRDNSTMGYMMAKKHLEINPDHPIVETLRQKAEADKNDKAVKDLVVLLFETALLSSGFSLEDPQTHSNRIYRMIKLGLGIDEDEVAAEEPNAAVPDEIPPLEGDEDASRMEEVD

Results are given in words; binding and its absence hold for the method and conditions named. In cells and extracts the contact can be indirect. Some entries that bind do so weakly or less than the wild type. Tags and fused reporters may be left off the sequences shown.

Common to all, as to assay: co-IP; HEK293T transiently expressing GSDMB-1-HA or GSDMB-2-HA; IP of GSDMB-HA with blot for Hsp90, and IP of Hsp90 with blot for GSDMB; lysis in 10 mM Tris-HCl pH 7.5, 150 mM NaCl, 5 mM EDTA, 1 mM PMSF; antibody overnight, protein A/G-sepharose 1 hr at 4°C
The target in assay [1] is T1, HA-tagged GSDMB-2, transiently expressed in HEK293T cells (human) (UniProt Q8TAX9).
T1 sequence: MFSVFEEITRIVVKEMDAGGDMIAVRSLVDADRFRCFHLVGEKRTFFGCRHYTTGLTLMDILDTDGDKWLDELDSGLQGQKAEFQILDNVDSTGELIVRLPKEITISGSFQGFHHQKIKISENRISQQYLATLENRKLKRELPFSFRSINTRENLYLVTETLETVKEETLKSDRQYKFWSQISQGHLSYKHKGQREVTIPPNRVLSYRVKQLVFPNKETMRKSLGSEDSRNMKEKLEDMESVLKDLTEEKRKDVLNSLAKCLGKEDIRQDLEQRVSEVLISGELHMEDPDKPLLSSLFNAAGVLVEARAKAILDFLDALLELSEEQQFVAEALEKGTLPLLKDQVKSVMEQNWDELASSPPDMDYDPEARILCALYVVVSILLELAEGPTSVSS

Assay [2] deals with T2, HA-tagged GSDMB-1, transiently expressed in HEK293T cells (human) (UniProt Q8TAX9).
T2 sequence: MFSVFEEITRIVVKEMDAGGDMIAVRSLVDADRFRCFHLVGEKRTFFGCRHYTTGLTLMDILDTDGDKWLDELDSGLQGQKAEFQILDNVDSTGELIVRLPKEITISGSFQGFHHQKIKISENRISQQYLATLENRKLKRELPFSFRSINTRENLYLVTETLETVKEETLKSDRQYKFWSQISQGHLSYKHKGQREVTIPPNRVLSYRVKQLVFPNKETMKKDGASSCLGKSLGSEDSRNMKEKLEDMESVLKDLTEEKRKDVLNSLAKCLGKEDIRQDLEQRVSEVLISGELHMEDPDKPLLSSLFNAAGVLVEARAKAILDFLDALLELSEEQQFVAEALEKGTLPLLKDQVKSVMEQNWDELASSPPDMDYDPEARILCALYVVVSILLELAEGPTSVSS

In assay [3] the target is Hsp90, endogenous in HEK293T cells (human (endogenous in HEK293T)) (UniProt P08238).

On to “Hsp90, endogenous in HEK293T cells (from UniProt P08238 1-724)”, for which the binding result in assay [1] and in assay [2] was “binds” throughout.

B1: HA-tagged GSDMB-1, transiently expressed in HEK293T cells (protein, UniProt Q8TAX9-3 1-403)
chain: T2 sequence
For the molecule B1, the binding result in assay [3] was “binds”.

B2: HA-tagged GSDMB-2, transiently expressed in HEK293T cells (protein, UniProt Q8TAX9-2 1-394)
chain: T1 sequence
As for B2, the binding result in assay [3] is “binds”.
